In experiment [1] the target is T1, GFP-MLF (from pAc-MLF-EGFP) (Drosophila) (UniProt Q9NKV0).
T1 sequence: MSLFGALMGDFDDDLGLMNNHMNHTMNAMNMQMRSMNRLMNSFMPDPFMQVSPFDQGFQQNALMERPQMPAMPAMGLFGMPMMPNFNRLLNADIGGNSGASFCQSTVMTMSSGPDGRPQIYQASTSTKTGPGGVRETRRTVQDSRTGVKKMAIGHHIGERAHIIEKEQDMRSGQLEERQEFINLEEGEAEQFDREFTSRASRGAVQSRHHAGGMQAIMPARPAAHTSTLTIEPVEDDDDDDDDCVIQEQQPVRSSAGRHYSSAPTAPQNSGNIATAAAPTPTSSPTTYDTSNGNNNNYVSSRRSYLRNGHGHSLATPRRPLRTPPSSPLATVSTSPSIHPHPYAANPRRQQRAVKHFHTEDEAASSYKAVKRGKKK
The experiment in a line: co-IP; Kc167 cells transfected with expression plasmids for GFP- and HA-tagged proteins; 1 mg of extract in IP buffer (150 mM NaCl, 0.5% NP40, 50 mM Tris-HCl pH 8.0, 1 mM EGTA); anti-GFP antibody coupled to sepharose beads, 4h at 4°C; Western blot. A general note: A western blot detects proteins with antibodies after separation by electrophoresis.

Amino acid sequences for entries named in this document (tags omitted).
UniProt Q9W349: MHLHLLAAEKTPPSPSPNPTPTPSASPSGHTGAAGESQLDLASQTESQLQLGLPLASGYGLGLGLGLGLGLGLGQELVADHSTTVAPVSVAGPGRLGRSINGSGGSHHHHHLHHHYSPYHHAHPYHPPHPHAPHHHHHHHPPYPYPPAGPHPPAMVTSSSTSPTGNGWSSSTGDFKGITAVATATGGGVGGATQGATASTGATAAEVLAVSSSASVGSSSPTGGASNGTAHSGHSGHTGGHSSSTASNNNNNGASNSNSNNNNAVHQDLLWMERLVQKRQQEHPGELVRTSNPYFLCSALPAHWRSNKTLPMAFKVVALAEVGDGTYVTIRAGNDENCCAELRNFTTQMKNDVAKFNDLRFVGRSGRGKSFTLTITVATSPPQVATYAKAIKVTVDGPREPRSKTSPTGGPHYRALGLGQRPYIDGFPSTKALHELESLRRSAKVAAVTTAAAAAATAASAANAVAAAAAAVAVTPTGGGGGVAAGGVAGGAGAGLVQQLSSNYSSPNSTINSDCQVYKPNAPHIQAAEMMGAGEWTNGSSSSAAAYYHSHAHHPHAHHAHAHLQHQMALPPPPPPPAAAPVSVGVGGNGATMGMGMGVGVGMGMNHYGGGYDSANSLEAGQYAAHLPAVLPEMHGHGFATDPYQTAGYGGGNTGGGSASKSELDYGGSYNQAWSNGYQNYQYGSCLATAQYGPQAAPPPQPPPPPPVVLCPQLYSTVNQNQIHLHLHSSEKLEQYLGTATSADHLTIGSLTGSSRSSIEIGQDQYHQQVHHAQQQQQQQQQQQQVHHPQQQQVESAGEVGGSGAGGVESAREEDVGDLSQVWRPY

Experiment [2] has as its target T2, HA-MLF (96-202), from pAc-3xHA-MLF (96-202) (Drosophila) (UniProt Q9NKV0).
T2 sequence: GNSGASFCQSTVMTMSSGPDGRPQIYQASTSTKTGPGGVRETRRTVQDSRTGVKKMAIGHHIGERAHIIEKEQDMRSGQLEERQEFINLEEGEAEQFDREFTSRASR
The description is as above.

In experiment [3] the target is GFP-tagged Lozenge (from pAc-Lz-EGFP) (Drosophila) (UniProt Q9W349). The experiment is described as above.
Experiment [4] concerns the target GST-MLF (from pGEX-MLF) (Drosophila) (UniProt Q9NKV0). As to the kind of experiment: pull-down; GST proteins from E. coli immobilised on Glutathione-Sepharose beads; 35S-methionine-labeled in vitro translated proteins; 2h at 4°C in buffer A (20 mM Tris-HCl pH 8.0, 150 mM NaCl, 10 mM KCl, 1 mM EDTA, 0.1 mg/ml BSA, 1 mM DTT, 0.05% NP40); autoradiography; only the target purified.

Experiment [5] concerns the target GST-DnaJ-1 (from pGEX-DnaJ-1) (Drosophila). The description is as above.
For experiment [6], the target named is GFP-DnaJ-1 (from pAc-DnaJ-J1-EGFP) (Drosophila). The experiment in a line: co-IP; Kc167 cells transfected with expression plasmids for GFP- and HA-tagged proteins; 1 mg of extract in IP buffer (150 mM NaCl, 0.5% NP40, 50 mM Tris-HCl pH 8.0, 1 mM EGTA); anti-GFP antibody coupled to sepharose beads, 4h at 4°C; Western blot.

These are yes or no findings as the source states them, for the method shown. In cells and extracts the contact can be indirect. A result given as binding can be weak or reduced; the word gives no strength. For part of these data: Where a sequence is shown, tags or fusion partners need not be part of it.

Consider “HA-DnaJ-1 (2-334), from pAc-3xHA-DnaJ-1 (2-334) (Drosophila)”, for which the binding entry in experiment [1] is “binds”.
Still for that read-out and setting: under “HA-DnaJ-1 (58-334), from pAc-3xHA-DnaJ-1 (58-334) (Drosophila) (domain or fragment)” stands “binds”.
Turning to “HA-DnaJ-1 (157-334), from pAc-3xHA-DnaJ-1 (157-334) (Drosophila) (domain or fragment)”, the binding result in experiment [1] and in experiment [2] was “binds” in each case.
With “HA-DnaJ-1 (P32S), from pAc-3xHA-DnaJ-1 (P32S) (Drosophila)”, in experiment [1], the binding result was “binds”.
Regarding “HA-MLF (2-309), from pAc-3xHA-MLF (2-309) (from UniProt Q9NKV0-2)”, in experiment [3], the binding result is on record as “binds”.
As to “in vitro translated 35S-methionine-labeled Lz (from pET-3c-Lz) (from UniProt Q9W349 1-826)”, the binding entry in experiment [4] is “binds”.

B1: in vitro translated 35S-methionine labeled MLF (from pBS-MLF) (protein, UniProt Q9NKV0 1-376)
chain: T1 sequence
modifications: 35S-methionine label
B1: the binding entry in experiment [5] is “binds”.

B2: HA-MLF (96-202), from pAc-3xHA-MLF (96-202) (domain or fragment, UniProt Q9NKV0 96-202)
chain: T2 sequence
Turning to B2, in experiment [6], the binding entry is reported as “binds”.

The record behind these values is PMC5549762.
